The text below walks through data of PubChem BioAssay.

This test can be described thus: modulators of brain endothelial barrier permeability, primary screen, cell-based, FITC-avidin fluorescence, HTS (AID 1963498). Note: test concentration not given here. The conditions noted are these: actives lie on both sides.

The entries are a selection whose mix differs from that of the whole data set. Activity calls are given as the source filed them. Cut-off read from the data, not from the text of the source: active = fold change permeability below about 0.7 or above about 1.3; inactive = in between.

On to `CCCc1nc2c(N)nc3ccccc3c2s1`, for which the fold change permeability was active: 1.7.
